{
  "sequences": {"note": "By UniProt entry, the sequences of proteins in these tests, tags left out. Residues count along the entry.", "UniProt Q09472, 323-423": "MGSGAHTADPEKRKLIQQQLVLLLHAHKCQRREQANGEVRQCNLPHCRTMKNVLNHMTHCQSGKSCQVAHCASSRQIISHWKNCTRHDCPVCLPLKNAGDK"},
  "source": "patent US20190225650A1",
  "about": "“PEPTIDOMIMETIC MACROCYCLES AND USE THEREOF IN REGULATING HIF1ALPHA” (AILERON THERAPEUTICS, INC., priority 2013, published 2019)",
  "target": "T1, flag-tagged HIF1α (AA 786-826) / His6-tagged p300 (AA 323-423) complex (Homo sapiens, UniProt Q09472)",
  "T1 construct": "His6-tagged p300 (AA 323-423); made in house; host or cells: E. coli (pETDuet vector)",
  "experiment": "HIF1α p300 displacement assay (TR FRET, +CHAPS)",
  "type": "binding",
  "settings": "read-out: IC50 (nM) (HIF1α_p300 Displacement + CHAPS)",
  "description": "The ability of peptides to displace HIF1α c-terminal trans-activation domain from p300-CH was measured by a TR FRET assay. A complex of flag-tagged HIF1α (AA 786-826) and His6-tagged p300 (AA 323-423) was co-expressed using pETDuet vector (EMDMillipore, Bellrica Mass.) and purified from E. coli in the presence of 0.1 mM ZnSO4. The complex was diluted to 300 nM final in complete assay media and competitor peptides were added. The complete assay media contained 150 mM NaCl (Sigma +S5150 or equivalent), 20 mM HEPES pH 7.4 (Boston Bioproducts, Ashland, Mass.; #BB-2076), 7.5 mM CHAPS (Thermo #28300 or equivalent), and 1 mM DTT. Protein and peptide were incubated at room temperature for 1 hour before the addition of anti-Flag-K and anti-6×HIS-D2 (CisBio, Bedford Mass.) HTRF reconstitution buffer (50 mM Phosphate pH 7, 0.8 Potassium Flouride, BSA 0.2%)^1 to a final concentration of 0.5 μM and 4 nM respectively. […] The reaction was read on a TECAN F500 plate reader with settings recommended by CisBio. The ratio of donor to acceptor fluorescence was calculated. The resulting data was analyzed with Graphpad Prism 5.0. IC50 values were calculated for both proteins using the One Site Fit-LogIC50 equation and presented in the column “IC50 (nM) (HIF1α_p300 Displacement+CHAPS)” of Table 6. ^1 Cisbio USA, Bedford, Mass.; 61HISDLB (lot 007A), 61FG2KLB (024A), HTRF Buffer (62RB3RDF)",
  "note": "At least one structure is not confirmed: it was looked up by name or label, or the drawing left a doubt. Bridge positions count the residues as written; N and C are the ends. Square brackets hold non-standard residues; d marks the D form. Peptide text beside a SMILES is read from it. Bpa = N[C@@H](Cc1ccc(C(=O)c2ccccc2)cc1)C(=O)O; S5 = C=CCCC[C@](C)(N)C(=O)O; Nle = CCCC[C@H](N)C(=O)O",
  "data": [
    {"smiles": "CCCC[C@H](NC(=O)[C@H](CC(C)C)NC(=O)[C@@H](NC(=O)[C@H](CCC(=O)O)NC(=O)[C@H](CCC(=O)O)NC(=O)[C@H](CC(=O)O)NC(=O)[C@@H](NC(=O)[C@H](Cc1ccccc1)NC(C)=O)[C@@H](C)CC)C(C)C)C(=O)N[C@@]1(C)CCCC=CCCC[C@@](C)(C(=O)N[C@@H](Cc2ccc(C(=O)c3ccccc3)cc2)C(=O)N[C@@H](C)C(=O)N[C@@H](CC(C)C)C(=O)N[C@@H](CC(=O)O)C(=O)N[C@@H](CCCNC(=N)N)C(=O)N[C@H](C(N)=O)[C@@H](C)CC)NC(=O)[C@H]([C@@H](C)CC)NC(=O)[C@H](C(C)C)NC(=O)[C@H](CC(C)C)NC1=O", "note": "[SP-74] (Ac-FIDEEVL[Nle][S5]LVI[S5][Bpa]ALDRI-NH2; staple 9-13)", "values": [
      {"measurement": "IC50", "value": "400 to 700", "unit": "nM"}
    ]}
  ]
}
